Paper PMC8582390
Results are given in words; binding and its absence hold for the method and conditions named. Binding seen in cells or lysates may run through a third protein. Some binding calls cover weakened binding; strength is not graded here.

By UniProt entry, the sequences of proteins in these tests, tags left out.
UniProt Q15910: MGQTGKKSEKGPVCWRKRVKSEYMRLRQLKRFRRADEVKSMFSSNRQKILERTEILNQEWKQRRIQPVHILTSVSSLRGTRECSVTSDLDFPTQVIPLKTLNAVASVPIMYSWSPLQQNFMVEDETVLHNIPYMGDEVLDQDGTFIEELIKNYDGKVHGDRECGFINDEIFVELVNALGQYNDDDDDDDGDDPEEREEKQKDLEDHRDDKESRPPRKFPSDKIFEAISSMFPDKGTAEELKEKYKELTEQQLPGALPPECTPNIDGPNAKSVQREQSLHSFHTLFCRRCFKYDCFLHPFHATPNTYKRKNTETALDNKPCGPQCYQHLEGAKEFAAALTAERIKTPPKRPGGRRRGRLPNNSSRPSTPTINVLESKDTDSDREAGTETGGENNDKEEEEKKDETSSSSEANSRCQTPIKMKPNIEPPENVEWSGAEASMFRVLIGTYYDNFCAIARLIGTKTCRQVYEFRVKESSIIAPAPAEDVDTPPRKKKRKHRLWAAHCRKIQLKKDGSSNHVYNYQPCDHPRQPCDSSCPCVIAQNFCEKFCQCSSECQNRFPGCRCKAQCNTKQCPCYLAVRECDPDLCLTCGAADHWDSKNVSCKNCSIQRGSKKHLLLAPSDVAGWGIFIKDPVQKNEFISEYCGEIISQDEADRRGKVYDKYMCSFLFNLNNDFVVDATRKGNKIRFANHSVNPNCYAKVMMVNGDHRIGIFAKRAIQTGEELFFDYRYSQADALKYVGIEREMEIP
UniProt Q04206: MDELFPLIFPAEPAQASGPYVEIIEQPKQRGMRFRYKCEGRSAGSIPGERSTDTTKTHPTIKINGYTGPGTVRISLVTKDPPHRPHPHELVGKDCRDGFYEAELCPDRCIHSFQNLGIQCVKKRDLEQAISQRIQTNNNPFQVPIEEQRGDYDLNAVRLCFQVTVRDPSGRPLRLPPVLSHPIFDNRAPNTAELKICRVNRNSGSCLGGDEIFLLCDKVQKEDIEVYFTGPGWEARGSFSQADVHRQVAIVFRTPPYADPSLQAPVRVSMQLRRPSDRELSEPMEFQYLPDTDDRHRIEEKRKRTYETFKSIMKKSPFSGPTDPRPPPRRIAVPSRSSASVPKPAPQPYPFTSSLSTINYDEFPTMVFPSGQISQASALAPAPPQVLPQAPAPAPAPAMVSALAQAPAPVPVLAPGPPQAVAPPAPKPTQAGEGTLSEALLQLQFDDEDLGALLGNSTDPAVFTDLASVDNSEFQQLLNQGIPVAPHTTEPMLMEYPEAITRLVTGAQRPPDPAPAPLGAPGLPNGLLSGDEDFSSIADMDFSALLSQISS
UniProt P40763: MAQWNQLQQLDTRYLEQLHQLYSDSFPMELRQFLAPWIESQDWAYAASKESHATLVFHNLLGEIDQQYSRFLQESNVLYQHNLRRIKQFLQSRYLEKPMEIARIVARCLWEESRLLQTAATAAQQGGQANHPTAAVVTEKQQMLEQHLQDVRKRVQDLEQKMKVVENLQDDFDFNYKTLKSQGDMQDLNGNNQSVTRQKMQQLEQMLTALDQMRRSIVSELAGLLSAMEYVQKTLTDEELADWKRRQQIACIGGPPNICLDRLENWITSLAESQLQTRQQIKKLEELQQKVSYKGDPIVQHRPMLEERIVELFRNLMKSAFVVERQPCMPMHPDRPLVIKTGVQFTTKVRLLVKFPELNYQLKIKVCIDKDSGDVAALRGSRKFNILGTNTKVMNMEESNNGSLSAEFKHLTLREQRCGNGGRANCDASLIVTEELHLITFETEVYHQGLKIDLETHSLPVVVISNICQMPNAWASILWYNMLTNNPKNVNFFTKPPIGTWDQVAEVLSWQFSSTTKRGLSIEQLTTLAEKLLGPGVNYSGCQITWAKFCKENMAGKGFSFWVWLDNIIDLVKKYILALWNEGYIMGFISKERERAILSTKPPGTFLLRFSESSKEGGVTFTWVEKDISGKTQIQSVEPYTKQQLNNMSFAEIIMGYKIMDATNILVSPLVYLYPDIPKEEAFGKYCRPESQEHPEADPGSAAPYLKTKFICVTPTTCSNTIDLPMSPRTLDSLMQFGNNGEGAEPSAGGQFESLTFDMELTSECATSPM
UniProt P08047: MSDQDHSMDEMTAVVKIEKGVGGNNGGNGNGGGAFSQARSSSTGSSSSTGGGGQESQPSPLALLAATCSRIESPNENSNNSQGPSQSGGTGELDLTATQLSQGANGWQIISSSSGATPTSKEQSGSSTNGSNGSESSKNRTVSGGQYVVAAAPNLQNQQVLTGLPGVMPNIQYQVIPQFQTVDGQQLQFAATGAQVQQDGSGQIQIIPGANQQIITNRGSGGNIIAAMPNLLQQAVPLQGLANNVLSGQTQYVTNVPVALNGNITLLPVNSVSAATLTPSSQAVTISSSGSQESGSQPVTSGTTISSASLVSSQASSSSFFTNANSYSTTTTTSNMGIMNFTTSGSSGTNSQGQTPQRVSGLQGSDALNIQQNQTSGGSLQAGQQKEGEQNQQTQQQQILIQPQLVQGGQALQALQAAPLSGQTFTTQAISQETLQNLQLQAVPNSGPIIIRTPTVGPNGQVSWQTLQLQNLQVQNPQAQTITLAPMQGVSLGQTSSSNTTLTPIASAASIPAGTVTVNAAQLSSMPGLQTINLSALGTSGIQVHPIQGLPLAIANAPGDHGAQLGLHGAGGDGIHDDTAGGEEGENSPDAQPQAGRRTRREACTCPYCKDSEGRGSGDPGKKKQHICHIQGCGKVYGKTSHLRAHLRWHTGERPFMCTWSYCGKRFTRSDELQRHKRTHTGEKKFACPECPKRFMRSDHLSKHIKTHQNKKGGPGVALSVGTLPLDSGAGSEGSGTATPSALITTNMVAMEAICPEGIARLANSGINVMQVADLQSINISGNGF

target: Enhancer of zeste homolog 2 (human (endogenous in PANC-1, MIA PaCa-2, Capan-1)) (UniProt Q15910); test: co-IP; nuclear proteins (100 μg) of PANC-1, MIA PaCa-2 and Capan-1 cells precipitated with IP-grade EZH2 antibody or IgG for 16 h at 4 °C, protein A agarose beads, PBS washes, immunoblot; cells with or without 5-HT (10 μM, 96 h)

| binding | Substance |
| --- | --- |
| binds | NF-κB P65 (from UniProt Q04206 1-551) |
| binds | STAT3 (from UniProt P40763 1-770) |
| binds | Sp1 (from UniProt P08047 1-785) |
